Assay results published in patent US8338403B2, “Drug for improving hyperglycemia” (Morinaga Milk Industry Co., Ltd., priority 2004, dated 2012).
Some results were stated once for a whole list of compounds, not compound by compound.

Tested on: db/db mice (type-II diabetes model mice)
Assay: Test Example 1: hemoglobin A1c lowering action and hyperglycemic condition improving effect, 40-day oral administration
Assay type: in vivo
Conditions: male db/db mice, oral once a day; 35th day
Procedure: This test was performed in order to evaluate the hemoglobin A1c lowering action and the hyperglycemic condition improving effect of the compounds of the present invention.
The compound 2 (4-methylcholest-7-en-3-ol), compound 3 (4-methylergost-7-en-3-ol) and compound 4 (4-methylstigmast-7-en-3-ol) produced in Preparation Example 1 mentioned above were used as test samples 1, 2 and 3, respectively.
Six-week old male db/db mice (purchased from Clea Japan, Inc.) were used as type-II diabetes model mice. These mice were divided into groups, each consisting of 7 animals. Each test sample was dissolved in DMSO, and the concentration was adjusted to 1 μg/mL with physiological saline. The final DMSO concentration was adjusted to 0.2%. […] The type-II diabetes model mice were orally administered with 1 mL of any of the test sample solutions once a day everyday with a sonde for 40 consecutive days. Further, β-sitosterol (Tama Biochemical Co., Ltd.) was administered to the model mice as a control sample 1. Fasting blood glucose levels and random blood glucose levels were measured over time by using Antisense II (Bayer-Sankyo Co., Ltd.). The fasting blood glucose levels were measured after 15 hours of fasting. Further, on the 35th day from the start of the administration, hemoglobin A1c levels were measured by using DCA 2000 (Bayer-Sankyo Co., Ltd.).

Compound	decrease in hemoglobin A1c level in comparison with the negative sample [%]
CC(C)C(C)CCC(C)C1CCC2C3=CCC4C(C)C(O)CCC4(C)C3CCC21C (centres unmarked) [test sample 2, 4-methylergost-7-en-3-ol]	15 to 26
CC(C)CCCC(C)C1CCC2C3=CCC4C(C)C(O)CCC4(C)C3CCC21C (centres unmarked) [test sample 1, 4-methylcholest-7-en-3-ol]	15 to 26
